Experimental data from PubChem BioAssay AID328 (DTP/NCI, 2004).
The list does not hold the whole screen: its compounds were picked by chemical class. Other doses and runs of a compound may be missing. T/C is the treated group as % of the vehicle group. Some entries give survivors of the animals treated and no T/C: the source holds a T/C of zero for them, seemingly a mark for toxic or unscored doses. Some doses without a T/C left all or most animals alive at the check, yet need not have been tolerated: the source hardly ever lists a survival T/C far under the control, and the zero likely stands for such cases as well. Counts of survivors are from the toxicity check (mostly the fifth day) where no day follows; animals may have died later. Schedules are NCI's codes, taken here to give the interval after Q, in days (D) or hours (H), and the number of doses after X. Where survival is the endpoint, this PubChem deposit counts one and a half times the control or more as active, and values a quarter to a half above the control carry no call in these data; other NCI protocols may use other cut-offs. Additions like (4×) count equal records among those shown. Some entries hold several experiments; the values are given in rising order. Some T/C values are marked as having no survivor count here; that says nothing about deaths at the dose. Some T/C values carry the count of animals alive at the toxicity check (mostly the fifth day); where neither a count nor a note follows, no animal had died by that day.

Test system: BDF1 mice, P388 leukemia ip, median survival T/C
Test: NCI In Vivo Anticancer Drug Screen. Data for tumor model P388 Leukemia (intraperitoneal) in B6D2F1 (BDF1) mice
Conditions: T/C endpoint: median survival time, higher T/C = longer survival
Procedure, shortened: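 Antitumour effect was judged in vivo: survival in drug-treated mice, normalised to that of vehicle-dosed controls, gives the reported T/C.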

[1] = dose: 16.5 mg/kg/injection, schedule: Q04DX003 (ip), vehicle: other
[2] = dose: 25.0 mg/kg/injection, schedule: Q04DX003 (ip), vehicle: saline with Tween-80
[3] = dose: 100.0 mg/kg/injection, schedule: Q04DX003 (ip), vehicle: saline with Tween-80
[4] = dose: 66.0 mg/kg/injection, schedule: Q04DX003 (ip), vehicle: saline with Tween-80
[5] = dose: 150.0 mg/kg/injection, schedule: Q04DX003 (ip), vehicle: saline with Tween-80
[6] = dose: 33.0 mg/kg/injection, schedule: Q04DX003 (ip), vehicle: Klucel (hydroxypropylcellulose) (HPC)
[7] = dose: 50.0 mg/kg/injection, schedule: Q01DX009 (ip), vehicle: Klucel (hydroxypropylcellulose) (HPC)
[8] = dose: 75.0 mg/kg/injection, schedule: Q01DX009 (ip), vehicle: Klucel (hydroxypropylcellulose) (HPC)
[9] = dose: 100.0 mg/kg/injection, schedule: Q04DX003 (ip), vehicle: Klucel (hydroxypropylcellulose) (HPC)
[10] = dose: 200.0 mg/kg/injection, schedule: Q04DX003 (ip), vehicle: Klucel (hydroxypropylcellulose) (HPC)

BrCc1cccc(CBr)c1
T/C (dose: 1.8 mg/kg/injection, schedule: Q01DX009 (ip), vehicle: other): 90 % of control
T/C (dose: 1.8 mg/kg/injection, schedule: Q01DX009 (ip), vehicle: saline with Tween-80): 112 % of control
T/C (dose: 2.6 mg/kg/injection, schedule: Q01DX009 (ip), vehicle: other): 120 % of control
T/C (dose: 2.6 mg/kg/injection, schedule: Q01DX009 (ip), vehicle: saline with Tween-80): 108 % of control
T/C (dose: 4.0 mg/kg/injection, schedule: Q01DX009 (ip), vehicle: other): 120 % of control
T/C (dose: 4.0 mg/kg/injection, schedule: Q01DX009 (ip), vehicle: saline with Tween-80): 116 % of control
T/C (dose: 6.0 mg/kg/injection, schedule: Q01DX009 (ip), vehicle: other): 155 % of control [5 of 6 alive]
T/C (dose: 6.0 mg/kg/injection, schedule: Q01DX009 (ip), vehicle: saline with Tween-80): 120 % of control
T/C (dose: 6.25 mg/kg/injection, schedule: Q01DX009 (ip), vehicle: other): 130 % of control
T/C (dose: 6.25 mg/kg/injection, schedule: Q04DX003 (ip), vehicle: saline with Tween-80): 100 % of control
T/C (dose: 7.33 mg/kg/injection, schedule: Q04DX003 (ip), vehicle: other): 100 % of control
T/C (dose: 11.0 mg/kg/injection, schedule: Q04DX003 (ip), vehicle: other): 100 % of control
survivor count (dose: 12.5 mg/kg/injection, schedule: Q01DX009 (ip), vehicle: other): 5 of 6
T/C (dose: 12.5 mg/kg/injection, schedule: Q04DX003 (ip), vehicle: saline with Tween-80): 118 % of control
T/C [1]: 140 % of control
survivor count [1]: 6 of 6
survivor count (dose: 25.0 mg/kg/injection, schedule: Q01DX009 (ip), vehicle: other): 0 of 6
T/C (dose: 25.0 mg/kg/injection, schedule: Q04DX003 (ip), vehicle: other): 100 % of control (2×)
T/C [2]: 127 % of control
survivor count (dose: 37.5 mg/kg/injection, schedule: Q04DX003 (ip), vehicle: other): 3 of 6

[N-]=[N+]=NC(=O)c1cc(Cl)cc(C(=O)N=[N+]=[N-])n1
T/C (dose: 12.5 mg/kg/injection, schedule: Q01DX009 (ip), vehicle: saline with Tween-80): 109 % of control
T/C (dose: 25.0 mg/kg/injection, schedule: Q01DX009 (ip), vehicle: saline with Tween-80): 113 % of control [4 of 6 alive]
T/C [2]: 109 % of control [5 of 6 alive]
survivor count (dose: 50.0 mg/kg/injection, schedule: Q01DX009 (ip), vehicle: saline with Tween-80): 0 of 6
T/C (dose: 50.0 mg/kg/injection, schedule: Q04DX003 (ip), vehicle: saline with Tween-80): 104 % of control
survivor count [3]: 4 of 6

Cc1nccn1P(=O)(Oc1ccccc1)OC1CC(C)(C)N(O)C(C)(C)C1 (stereo not drawn)
T/C (dose: 50.0 mg/kg/injection, schedule: Q01DX009 (ip), vehicle: saline + alcohol): 97 % of control
T/C (dose: 100.0 mg/kg/injection, schedule: Q01DX009 (ip), vehicle: saline + alcohol): 100 % of control
T/C (dose: 200.0 mg/kg/injection, schedule: Q01DX009 (ip), vehicle: saline + alcohol): 101 % of control

O=C(NN(CCCl)CCCl)c1ccccc1
T/C (dose: 13.2 mg/kg/injection, schedule: Q01DX009 (ip), vehicle: saline with Tween-80): 95 % of control
T/C (dose: 20.0 mg/kg/injection, schedule: Q01DX009 (ip), vehicle: saline with Tween-80): 100 % of control [5 of 6 alive]
T/C (dose: 30.0 mg/kg/injection, schedule: Q01DX009 (ip), vehicle: saline with Tween-80): 116 % of control
T/C (dose: 37.5 mg/kg/injection, schedule: Q01DX009 (ip), vehicle: saline with Tween-80): 125 % of control
T/C (dose: 44.0 mg/kg/injection, schedule: Q04DX003 (ip), vehicle: saline with Tween-80): 100 % of control
T/C (dose: 45.0 mg/kg/injection, schedule: Q01DX009 (ip), vehicle: saline with Tween-80): 108 % of control
T/C [4]: 121 % of control
T/C (dose: 75.0 mg/kg/injection, schedule: Q01DX009 (ip), vehicle: saline with Tween-80): 190 % of control
T/C [3]: 121 % of control
survivor count (dose: 150.0 mg/kg/injection, schedule: Q01DX009 (ip), vehicle: saline with Tween-80): 0 of 6
T/C [5]: 200 % of control

O=C(O)CCc1cccc(N(CCCl)CCCl)c1
T/C (dose: 1.5 mg/kg/injection, schedule: Q01DX009 (ip), vehicle: Klucel (hydroxypropylcellulose) (HPC)): 100 % of control
T/C (dose: 2.3 mg/kg/injection, schedule: Q01DX009 (ip), vehicle: Klucel (hydroxypropylcellulose) (HPC)): 90 % of control
T/C (dose: 8.2 mg/kg/injection, schedule: Q01DX009 (ip), vehicle: Klucel (hydroxypropylcellulose) (HPC)): 131 % of control
T/C (dose: 12.0 mg/kg/injection, schedule: Q01DX009 (ip), vehicle: Klucel (hydroxypropylcellulose) (HPC)): 113 % of control
T/C (dose: 18.75 mg/kg/injection, schedule: Q01DX009 (ip), vehicle: Klucel (hydroxypropylcellulose) (HPC)): 136 % of control
T/C [6]: 118 % of control
survivor count [6]: 3 of 6
T/C (dose: 37.5 mg/kg/injection, schedule: Q01DX009 (ip), vehicle: Klucel (hydroxypropylcellulose) (HPC)): 172 % of control
T/C [7]: 170 % of control
survivor count [7]: 5 of 6
T/C (dose: 50.0 mg/kg/injection, schedule: Q04DX003 (ip), vehicle: Klucel (hydroxypropylcellulose) (HPC)): 136, 168, 195 % of control
T/C [4]: 100 % of control
T/C [8]: 204 and 231 % of control
survivor count [8]: 6 of 6
T/C (dose: 75.0 mg/kg/injection, schedule: Q04DX003 (ip), vehicle: Klucel (hydroxypropylcellulose) (HPC)): 90 and 204 % of control
survivor count [9]: 0 of 6
T/C [3]: 125 % of control
survivor count (dose: 110.0 mg/kg/injection, schedule: Q01DX009 (ip), vehicle: Klucel (hydroxypropylcellulose) (HPC)): 1 of 6
survivor count (dose: 112.5 mg/kg/injection, schedule: Q01DX009 (ip), vehicle: Klucel (hydroxypropylcellulose) (HPC)): 0 of 6
survivor count (dose: 132.0 mg/kg/injection, schedule: Q04DX003 (ip), vehicle: saline with Tween-80): 2 of 6
T/C [5]: 170 % of control
survivor count [10]: 0 of 6
survivor count (dose: 200.0 mg/kg/injection, schedule: Q04DX003 (ip), vehicle: saline with Tween-80): 1 of 6
survivor count (dose: 300.0 mg/kg/injection, schedule: Q04DX003 (ip), vehicle: saline with Tween-80): 0 of 6

CCN1CCNCc2ccc(C)nc21.O=[N+]([O-])c1cc([N+](=O)[O-])c(O)c([N+](=O)[O-])c1
T/C (dose: 100.0 mg/kg/injection, schedule: Q04DX003 (ip), vehicle: saline): 98 % of control
T/C (dose: 200.0 mg/kg/injection, schedule: Q04DX003 (ip), vehicle: saline): 104 % of control
survivor count (dose: 400.0 mg/kg/injection, schedule: Q04DX003 (ip), vehicle: saline): 0 of 6

O=[N+]([O-])c1cc([N+](=O)[O-])c(O)c([N+](=O)[O-])c1.OCc1cnc[nH]1
T/C (dose: 25.0 mg/kg/injection, schedule: Q01DX009 (ip), vehicle: Klucel (hydroxypropylcellulose) (HPC)): 100 % of control [survivor count not shown]
T/C [7]: 100 % of control [survivor count not shown]
T/C (dose: 100.0 mg/kg/injection, schedule: Q01DX009 (ip), vehicle: Klucel (hydroxypropylcellulose) (HPC)): 90 % of control [survivor count not shown] (2×)
T/C [9]: 100 % of control [survivor count not shown]
T/C [10]: 113 % of control [survivor count not shown]
T/C (dose: 400.0 mg/kg/injection, schedule: Q04DX003 (ip), vehicle: Klucel (hydroxypropylcellulose) (HPC)): 113 % of control [survivor count not shown]
